Results deposited as PubChem BioAssay AID504786 (Drosophila RNAi Screening Center, 2011).
Assay: 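Positive regulators of HIF-driven reporter output in Drosophila cells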 (primary screen). System: Drosophila S2 cells with a stable HIF luciferase reporter. Reagents: long dsRNA against Drosophila genes, about 0.2 µg dsRNA per well of a 384-well plate. Time to read-out: three days of knock-down, then 20 h of DFO before reading. Treatment: desferrioxamine (DFO) at 100 µM, an iron chelator that mimics hypoxia, for 20 h. Read-out: 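HIF reporter luminescence in cells given 100 µM DFO for 20 h, using the mouse ldh-a hypoxia-response element, scored as per-plate z-scores; higher means greater loss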. Reading the numbers: z-score: higher = stronger loss of HIF reporter signal.
The screen tested about 21,000 reagents; shown is a random part of those that have a named target and a result. 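Primary screen; positive scores mean lost reporter signal, so the sign may be inverted from the usual convention.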 Names joined by + are all predicted targets of the reagent.

predicted target	dsRNA	z-score, replicate 1	z-score, replicate 2	z-score, replicate 3	z-score, replicate 4
PGRP-LA	DRSC10327	-0.3	-0.1		
PGRP-LA	DRSC10414	-0.3	-0.5		
anchor	DRSC10861	-0.3	-0.1		
Dbx	DRSC08270	1.8	-0.4		
Dbx	DRSC08271	-0.3	-0.5		
Dbx	DRSC08394	-0.2	-0.6		
CG15202	DRSC19649	-0.3	-0.5		
GstE8	DRSC06678	-0.3	-0.7		
CG5805	DRSC15878	-0.2	-0.2		
CG6508	DRSC02963	-0.3	-0.3		
RpL35A	DRSC12302	7.4	7.1		
Osi17	DRSC12284	0.1	0.4		
CG13707	DRSC08316	-0.2	-0.4		
Cht7	DRSC08538	-0.1	0		
nst	DRSC09755	-0.4	-0.5		
pug	DRSC17036	0.2	0		
Or85c	DRSC16766	-0.2	-0.6		
CG15891 + CG15892	DRSC18095	-0.1	-0.4		
CG15891 + CG15892	DRSC18096	-0.1	-0.3		
CG12106	DRSC17805	-0.1	-0.5		
CG6168	DRSC10596	-0.2	-0.3		
CG5445	DRSC19943	0.1	0.9		
CG14570	DRSC11731	-0.2	-0.1		
CG18754	DRSC15387	0	1		
CG12486 (retired record)	DRSC09888	-0.4	-0.3		
mRpL11	DRSC15482	1.1	1.4		
Ptp4E	DRSC18701	-0.4	-0.2		
CG34236	DRSC05435	-0.2	-0.1		
p24-1	DRSC19827	-0.2	-1.2		
Trpm	DRSC06629	-0.3	-0.5		
CG4968	DRSC02794	-0.3	-0.9	-0.3	-0.3
Taf2	DRSC11298	0.3	1.1		
p38b	DRSC03586	0.3	-0.6		
Ciz1	DRSC09675	0.2	2.2		
CG6340	DRSC19987	-0.4	-0.1	-0.2	-0.6
Fmr1	DRSC16674	-0.1	0.2		
CG15756	DRSC19721	-0.4	-0.4		
CG15533	DRSC15069	-0.2	0.8		
Dtd	DRSC15362	-0.4	0.4		
gny	DRSC02810	-0.2	-0.6		
His3:CG33818 + His3:CG33857 + His3:CG33806 + 20 more	DRSC21267		2.3		
CG15393 (retired record)	DRSC00407	-0.3	-0.6		
CG34268	DRSC07874	-0.3	-0.4		
Muc68Ca	DRSC10312	-0.4	-0.1		
Muc68Ca	DRSC10313	-0.1	-0.2		
CG13659	DRSC14660	-0.3	-0.2		
SCCRO	DRSC10844	-0.3	0.5		
CG14342	DRSC00372	-0.4	-0.4		
CG13016	DRSC06271	-0.2	-0.2		
bdwf	DRSC15532	-0.2	-0.2		
Prtl99C	DRSC15049	-0.2	-0.2		
ImpL1	DRSC11197	-0.3	-0.4		
CG31759	DRSC01230	0.5	-0.1		
CG14546	DRSC14890	-0.4	-0.6		
CG14205	DRSC19560	-0.3	0.2		
Klp3A	DRSC18676	-0.2	-0.5		
CG17267	DRSC15207	0.4	0.1		
Dysb	DRSC10730	0.9	0.1		
PTP-ER	DRSC04636	-0.4	-0.6		
hydra	DRSC20497	-0.3	-0.3		
CG1951	DRSC15403	-0.3	0		
primo-2 + primo-1	DRSC16511	-0.3	-0.6		
RYBP	DRSC04117	-0.1	0		
ATP8B	DRSC14961	-0.4	-0.3		
Hsp60A	DRSC20254	-0.4	-0.3		
CG46301	DRSC01916	-0.3	-0.6	-0.8	-0.3
CG12321	DRSC14499	-0.2	-0.2		
LManII	DRSC01986	-0.3	-0.6		
CG11815	DRSC08209	-0.4	-0.4		
Sc2	DRSC08162	-0.3	-0.4		
Alp2	DRSC04354	-0.2	0.2		
Sce	DRSC16825	-0.4	-0.6		
hang	DRSC19901	-0.2	1.7		
hang	DRSC19902	1.5	-0.2		
CG46441	DRSC15561	-0.3	-0.4		
nopo	DRSC06918	-0.3	-0.4		
blow	DRSC07586	0.1	0.2		
CG14352	DRSC00382	-0.4	-0.4		
Trs31	DRSC05975	-0.5	-0.6		
rig	DRSC06053	-0.2	-0.3		
rig	DRSC06400	-0.1	0.3		
bru1	DRSC01234		7.3		
bru1	DRSC01236	-0.7	-0.6		
bru1	DRSC01237	-0.4	-0.7		
bru1	DRSC01238	-0.2	-0.3		
bru1	DRSC03485	-0.4	-0.5		
Dcps	DRSC12299	-0.3	-0.4		
wdn	DRSC17095	0.1	0.8		
eIF3j	DRSC06107	1.3	0.5		
CG9643	DRSC00722	0.1	-0.1		
CG14258	DRSC14753	-0.4	-0.6		
Sry-beta	DRSC16868	-0.2	-0.1		
CG17266	DRSC04979	-0.2	-0.4		
wfs1	DRSC15676	0	-0.1		
Spn31A	DRSC02780	-0.4	-0.5		
RpL28 + snoRNA:Or-CD12	DRSC08293	4.5	4.8		
CG14893	DRSC15015	-0.2	-0.1		
CG34251	DRSC09498	0	-0.3		
CG34251	DRSC09500	0.2	-0.1		
CG14591	DRSC04868	-0.3	-0.2		
mtgo	DRSC02245	0.2	1	3.9	2.9
mtgo	DRSC02246	-0.1	-0.6	1.7	-0.3
mtgo	DRSC02769	0	0.5		
Ir7f	DRSC18012	-0.3	0.2		
upd1	DRSC20358	-0.3	-0.3		
Cyp6d2	DRSC04606	-0.3	-0.5	-0.4	-0.3

13 of these entries, set out differently:
p38b [DRSC03586] | z-score, replicate 1: 0.3; z-score, replicate 2: -0.6
Ciz1 [DRSC09675] | z-score, replicate 1: 0.2; z-score, replicate 2: 2.2
CG6340 [DRSC19987] | z-score, replicate 1: -0.4; z-score, replicate 2: -0.1; z-score, replicate 3: -0.2; z-score, replicate 4: -0.6
Fmr1 [DRSC16674] | z-score, replicate 1: -0.1; z-score, replicate 2: 0.2
CG15756 [DRSC19721] | z-score, replicate 1: -0.4; z-score, replicate 2: -0.4
CG15533 [DRSC15069] | z-score, replicate 1: -0.2; z-score, replicate 2: 0.8
Dtd [DRSC15362] | z-score, replicate 1: -0.4; z-score, replicate 2: 0.4
gny [DRSC02810] | z-score, replicate 1: -0.2; z-score, replicate 2: -0.6
His3:CG33818 + His3:CG33857 + His3:CG33806 + 20 more [DRSC21267] | z-score, replicate 2: 2.3
CG15393 (retired record) [DRSC00407] | z-score, replicate 1: -0.3; z-score, replicate 2: -0.6
CG34268 [DRSC07874] | z-score, replicate 1: -0.3; z-score, replicate 2: -0.4
Muc68Ca [DRSC10312] | z-score, replicate 1: -0.4; z-score, replicate 2: -0.1
Muc68Ca [DRSC10313] | z-score, replicate 1: -0.1; z-score, replicate 2: -0.2
